From PMC5316994
These are yes or no findings as the source states them, for the method shown. In cells and extracts the contact can be indirect. Binding can be weak; no strength is given.

Protein sequences, listed by entry. Tags and fused reporters are not part of them. Lines headed by an entry give the natural chain unless they say otherwise; changes in a name come on top.
UniProt Q8I489: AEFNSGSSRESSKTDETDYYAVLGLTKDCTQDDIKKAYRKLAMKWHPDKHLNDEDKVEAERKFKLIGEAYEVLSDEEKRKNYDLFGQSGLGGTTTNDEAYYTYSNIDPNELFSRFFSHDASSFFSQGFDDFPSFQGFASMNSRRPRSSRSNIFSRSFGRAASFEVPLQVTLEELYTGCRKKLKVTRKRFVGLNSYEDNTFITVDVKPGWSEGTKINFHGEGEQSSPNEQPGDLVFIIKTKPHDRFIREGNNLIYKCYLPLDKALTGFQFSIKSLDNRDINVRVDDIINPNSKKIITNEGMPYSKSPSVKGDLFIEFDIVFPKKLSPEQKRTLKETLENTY
UniProt Q8IAK9: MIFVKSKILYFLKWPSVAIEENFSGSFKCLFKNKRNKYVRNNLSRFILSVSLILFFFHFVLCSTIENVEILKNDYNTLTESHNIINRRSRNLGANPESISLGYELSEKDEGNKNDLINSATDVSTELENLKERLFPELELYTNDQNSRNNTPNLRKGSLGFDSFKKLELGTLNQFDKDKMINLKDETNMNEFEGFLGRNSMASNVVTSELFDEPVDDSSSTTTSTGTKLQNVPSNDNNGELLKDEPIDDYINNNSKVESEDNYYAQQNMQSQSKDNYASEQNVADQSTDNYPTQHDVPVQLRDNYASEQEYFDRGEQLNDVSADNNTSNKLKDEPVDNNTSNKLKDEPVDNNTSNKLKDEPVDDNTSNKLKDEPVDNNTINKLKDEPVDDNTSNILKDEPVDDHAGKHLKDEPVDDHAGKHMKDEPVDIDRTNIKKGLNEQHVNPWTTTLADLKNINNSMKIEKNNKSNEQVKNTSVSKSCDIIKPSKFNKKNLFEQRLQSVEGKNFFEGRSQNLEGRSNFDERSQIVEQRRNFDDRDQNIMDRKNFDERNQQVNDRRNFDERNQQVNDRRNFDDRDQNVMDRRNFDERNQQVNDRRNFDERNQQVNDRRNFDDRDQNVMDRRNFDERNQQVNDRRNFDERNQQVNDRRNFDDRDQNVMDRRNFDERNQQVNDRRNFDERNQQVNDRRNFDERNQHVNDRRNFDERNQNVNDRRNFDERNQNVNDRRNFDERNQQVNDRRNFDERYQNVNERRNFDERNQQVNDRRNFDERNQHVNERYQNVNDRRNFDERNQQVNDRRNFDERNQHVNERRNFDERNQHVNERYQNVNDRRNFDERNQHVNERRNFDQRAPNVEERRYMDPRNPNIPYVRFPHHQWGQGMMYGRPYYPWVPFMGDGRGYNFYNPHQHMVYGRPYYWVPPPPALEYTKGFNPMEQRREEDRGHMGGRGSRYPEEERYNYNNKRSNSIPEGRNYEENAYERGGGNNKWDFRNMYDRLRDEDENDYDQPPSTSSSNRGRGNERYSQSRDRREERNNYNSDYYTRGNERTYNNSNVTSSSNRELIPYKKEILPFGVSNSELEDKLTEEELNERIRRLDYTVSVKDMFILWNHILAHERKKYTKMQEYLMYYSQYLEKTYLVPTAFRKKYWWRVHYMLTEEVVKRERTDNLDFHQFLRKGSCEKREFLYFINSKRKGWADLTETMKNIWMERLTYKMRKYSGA

Target: PFE55^GFP (Plasmodium falciparum 3D7) (UniProt Q8I489)
Assay: co-IP

PfPHIST_0801 (from UniProt Q8IAK9)
binding: binds

PfHsp101 (from UniProt Q8IIJ8)
binding: binds
